Some of the results follow.
Tests used:
Test in all cases: log2 fold change, soluble protein after heating vs DMSO (PISA); higher = thermal stabilisation; K562 cells, 10 uM, 30 min; active = over 0.2 and 3.5 SD of the protein, either way, in both replicates (recomputed)
[1] = compound: C1=CC=C(C=C1)[C@H](COC2=CC3=C(C=C2)NC(=O)N3)NC(=O)C4=CC=CN(C4=O)CC5=CC(=C(C=C5)F)F
Method in brief: (§1)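 K562 cells at 2×10^6 cells/mL were treated for 30 min with 10 μM compound, and aliquots were heated for 3 min over 48°C-58°C before pooling. Extraction used PBS with 0.5% NP-40 at 4°C, and soluble protein was the supernatant after 21,000xg for 90 min, measured by TMTpro 16plex LC-MS/MS with channel sums equalised. Thermal stability values, relative to control samples and from duplicates, are log2 fold changes.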

Amino acid sequences for entries named in this document (tags omitted). A change or cut given only in a name is not applied to a line headed by its entry.
UniProt Q8IWU2: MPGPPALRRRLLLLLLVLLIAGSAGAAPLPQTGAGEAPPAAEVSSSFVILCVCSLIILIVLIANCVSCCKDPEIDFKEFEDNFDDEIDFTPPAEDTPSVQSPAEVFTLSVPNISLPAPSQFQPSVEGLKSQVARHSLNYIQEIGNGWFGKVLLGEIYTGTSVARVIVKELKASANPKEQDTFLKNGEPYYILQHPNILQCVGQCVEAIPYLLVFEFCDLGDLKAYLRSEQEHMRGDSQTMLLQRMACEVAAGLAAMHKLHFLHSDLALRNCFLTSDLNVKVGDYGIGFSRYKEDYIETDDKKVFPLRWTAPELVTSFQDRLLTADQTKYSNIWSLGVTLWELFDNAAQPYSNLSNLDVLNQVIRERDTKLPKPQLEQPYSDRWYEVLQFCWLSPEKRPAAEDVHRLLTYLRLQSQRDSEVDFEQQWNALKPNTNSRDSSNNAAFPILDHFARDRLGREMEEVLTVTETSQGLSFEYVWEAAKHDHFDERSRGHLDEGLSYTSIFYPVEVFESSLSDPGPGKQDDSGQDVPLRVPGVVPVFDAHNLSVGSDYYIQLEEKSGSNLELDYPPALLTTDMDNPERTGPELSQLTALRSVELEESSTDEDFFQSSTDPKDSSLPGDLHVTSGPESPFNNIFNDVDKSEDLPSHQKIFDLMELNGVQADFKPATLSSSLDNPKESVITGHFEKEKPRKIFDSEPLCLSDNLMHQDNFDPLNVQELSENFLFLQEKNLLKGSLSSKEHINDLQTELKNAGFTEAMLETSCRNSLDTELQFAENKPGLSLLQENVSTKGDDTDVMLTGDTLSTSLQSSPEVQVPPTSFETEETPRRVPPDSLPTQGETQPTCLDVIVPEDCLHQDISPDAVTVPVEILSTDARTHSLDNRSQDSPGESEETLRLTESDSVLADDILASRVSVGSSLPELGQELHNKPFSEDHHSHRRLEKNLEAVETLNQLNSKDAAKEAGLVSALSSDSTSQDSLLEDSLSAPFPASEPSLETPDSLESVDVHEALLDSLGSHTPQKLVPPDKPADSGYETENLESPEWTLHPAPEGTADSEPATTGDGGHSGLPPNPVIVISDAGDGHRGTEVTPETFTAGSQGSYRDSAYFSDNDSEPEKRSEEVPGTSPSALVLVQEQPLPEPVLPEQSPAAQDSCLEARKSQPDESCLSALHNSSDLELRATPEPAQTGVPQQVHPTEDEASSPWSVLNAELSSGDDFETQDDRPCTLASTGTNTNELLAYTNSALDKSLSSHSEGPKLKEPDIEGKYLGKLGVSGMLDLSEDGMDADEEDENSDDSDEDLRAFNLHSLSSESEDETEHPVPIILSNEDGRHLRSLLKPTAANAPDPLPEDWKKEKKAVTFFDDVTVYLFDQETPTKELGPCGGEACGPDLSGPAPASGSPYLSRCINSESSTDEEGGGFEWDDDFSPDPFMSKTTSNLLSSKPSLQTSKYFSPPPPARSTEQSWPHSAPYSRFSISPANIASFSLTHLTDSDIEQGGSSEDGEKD
UniProt Q14657: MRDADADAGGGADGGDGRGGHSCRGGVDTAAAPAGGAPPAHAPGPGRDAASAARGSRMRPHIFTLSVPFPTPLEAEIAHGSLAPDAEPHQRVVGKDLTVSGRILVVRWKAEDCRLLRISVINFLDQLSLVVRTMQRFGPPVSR
UniProt Q8N9N7: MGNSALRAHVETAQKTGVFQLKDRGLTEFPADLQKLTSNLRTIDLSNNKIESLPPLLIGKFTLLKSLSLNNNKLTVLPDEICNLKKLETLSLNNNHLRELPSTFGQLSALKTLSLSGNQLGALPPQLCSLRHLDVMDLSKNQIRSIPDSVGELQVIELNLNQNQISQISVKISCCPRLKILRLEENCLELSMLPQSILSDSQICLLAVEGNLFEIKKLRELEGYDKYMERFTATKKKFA
UniProt Q9Y4W2: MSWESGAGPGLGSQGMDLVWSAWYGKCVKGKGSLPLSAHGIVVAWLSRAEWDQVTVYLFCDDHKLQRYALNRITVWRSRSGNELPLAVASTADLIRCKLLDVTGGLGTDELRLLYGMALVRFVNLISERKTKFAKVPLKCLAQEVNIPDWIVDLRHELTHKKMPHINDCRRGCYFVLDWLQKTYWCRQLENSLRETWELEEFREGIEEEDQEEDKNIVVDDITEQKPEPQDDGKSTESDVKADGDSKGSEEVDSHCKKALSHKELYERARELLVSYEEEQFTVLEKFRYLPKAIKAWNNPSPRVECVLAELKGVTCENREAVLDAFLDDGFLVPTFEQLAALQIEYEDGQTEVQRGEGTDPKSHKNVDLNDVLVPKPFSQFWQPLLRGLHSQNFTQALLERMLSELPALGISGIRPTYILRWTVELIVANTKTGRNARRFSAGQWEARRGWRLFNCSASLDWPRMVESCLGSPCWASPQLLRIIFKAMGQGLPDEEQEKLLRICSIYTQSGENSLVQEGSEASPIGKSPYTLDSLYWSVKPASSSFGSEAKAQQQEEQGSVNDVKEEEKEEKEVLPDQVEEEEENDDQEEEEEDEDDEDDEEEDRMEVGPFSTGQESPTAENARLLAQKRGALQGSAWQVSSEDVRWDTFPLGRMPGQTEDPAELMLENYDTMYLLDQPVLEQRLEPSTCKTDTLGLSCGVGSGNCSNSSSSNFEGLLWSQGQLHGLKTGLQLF
UniProt Q8NF37: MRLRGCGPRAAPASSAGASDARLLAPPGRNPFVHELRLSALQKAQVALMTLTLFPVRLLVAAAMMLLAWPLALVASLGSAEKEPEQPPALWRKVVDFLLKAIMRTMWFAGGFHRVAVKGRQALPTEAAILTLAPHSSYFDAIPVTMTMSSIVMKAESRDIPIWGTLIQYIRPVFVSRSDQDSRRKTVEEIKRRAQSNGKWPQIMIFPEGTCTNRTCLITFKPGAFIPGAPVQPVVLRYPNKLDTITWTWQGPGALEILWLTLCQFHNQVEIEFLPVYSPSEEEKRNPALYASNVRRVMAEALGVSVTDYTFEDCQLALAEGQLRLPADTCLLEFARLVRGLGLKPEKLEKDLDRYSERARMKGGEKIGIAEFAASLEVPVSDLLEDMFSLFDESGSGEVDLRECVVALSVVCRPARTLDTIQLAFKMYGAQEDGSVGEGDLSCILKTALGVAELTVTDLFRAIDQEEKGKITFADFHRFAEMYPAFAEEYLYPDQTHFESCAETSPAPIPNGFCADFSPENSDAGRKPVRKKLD
UniProt P20700: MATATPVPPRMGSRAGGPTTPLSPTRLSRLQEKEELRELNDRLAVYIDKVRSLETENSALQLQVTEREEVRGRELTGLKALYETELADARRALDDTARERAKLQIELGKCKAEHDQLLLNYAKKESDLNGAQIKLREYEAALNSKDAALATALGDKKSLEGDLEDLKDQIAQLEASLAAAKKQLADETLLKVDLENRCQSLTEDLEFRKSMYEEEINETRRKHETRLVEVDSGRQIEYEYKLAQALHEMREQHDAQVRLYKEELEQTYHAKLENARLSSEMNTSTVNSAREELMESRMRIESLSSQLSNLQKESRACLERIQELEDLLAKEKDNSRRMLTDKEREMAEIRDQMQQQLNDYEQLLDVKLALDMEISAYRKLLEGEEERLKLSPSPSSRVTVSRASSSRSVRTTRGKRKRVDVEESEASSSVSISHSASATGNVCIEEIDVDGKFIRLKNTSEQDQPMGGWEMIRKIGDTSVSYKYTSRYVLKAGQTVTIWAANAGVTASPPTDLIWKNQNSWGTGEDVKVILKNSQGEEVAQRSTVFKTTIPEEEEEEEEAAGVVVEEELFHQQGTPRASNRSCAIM
UniProt Q96EM0: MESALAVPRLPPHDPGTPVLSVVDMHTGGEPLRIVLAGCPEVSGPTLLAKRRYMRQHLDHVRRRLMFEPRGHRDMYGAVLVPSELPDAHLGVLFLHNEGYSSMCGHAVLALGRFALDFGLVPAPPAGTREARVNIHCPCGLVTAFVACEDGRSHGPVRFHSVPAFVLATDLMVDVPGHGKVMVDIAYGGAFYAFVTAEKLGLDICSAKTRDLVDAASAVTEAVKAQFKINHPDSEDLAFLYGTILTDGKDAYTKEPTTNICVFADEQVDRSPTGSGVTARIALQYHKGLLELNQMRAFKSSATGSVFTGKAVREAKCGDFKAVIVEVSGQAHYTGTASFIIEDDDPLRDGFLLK
UniProt P53667: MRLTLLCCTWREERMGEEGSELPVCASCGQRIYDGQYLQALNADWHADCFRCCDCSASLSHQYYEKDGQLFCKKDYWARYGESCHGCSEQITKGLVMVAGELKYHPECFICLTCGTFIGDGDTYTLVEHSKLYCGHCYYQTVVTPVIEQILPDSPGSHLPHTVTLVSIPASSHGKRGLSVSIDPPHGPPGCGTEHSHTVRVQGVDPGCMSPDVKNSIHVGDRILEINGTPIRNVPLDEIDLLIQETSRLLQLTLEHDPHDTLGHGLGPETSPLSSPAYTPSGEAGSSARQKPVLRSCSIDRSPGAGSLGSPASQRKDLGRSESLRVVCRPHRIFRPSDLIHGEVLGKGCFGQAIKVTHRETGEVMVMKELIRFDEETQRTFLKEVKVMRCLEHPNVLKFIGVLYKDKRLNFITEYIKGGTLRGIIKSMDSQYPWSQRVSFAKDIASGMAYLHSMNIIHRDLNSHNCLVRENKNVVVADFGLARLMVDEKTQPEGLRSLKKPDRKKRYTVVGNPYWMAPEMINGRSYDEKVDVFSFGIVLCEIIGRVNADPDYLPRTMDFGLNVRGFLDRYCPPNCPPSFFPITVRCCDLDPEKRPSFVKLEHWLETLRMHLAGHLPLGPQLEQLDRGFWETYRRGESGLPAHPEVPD
UniProt O75581: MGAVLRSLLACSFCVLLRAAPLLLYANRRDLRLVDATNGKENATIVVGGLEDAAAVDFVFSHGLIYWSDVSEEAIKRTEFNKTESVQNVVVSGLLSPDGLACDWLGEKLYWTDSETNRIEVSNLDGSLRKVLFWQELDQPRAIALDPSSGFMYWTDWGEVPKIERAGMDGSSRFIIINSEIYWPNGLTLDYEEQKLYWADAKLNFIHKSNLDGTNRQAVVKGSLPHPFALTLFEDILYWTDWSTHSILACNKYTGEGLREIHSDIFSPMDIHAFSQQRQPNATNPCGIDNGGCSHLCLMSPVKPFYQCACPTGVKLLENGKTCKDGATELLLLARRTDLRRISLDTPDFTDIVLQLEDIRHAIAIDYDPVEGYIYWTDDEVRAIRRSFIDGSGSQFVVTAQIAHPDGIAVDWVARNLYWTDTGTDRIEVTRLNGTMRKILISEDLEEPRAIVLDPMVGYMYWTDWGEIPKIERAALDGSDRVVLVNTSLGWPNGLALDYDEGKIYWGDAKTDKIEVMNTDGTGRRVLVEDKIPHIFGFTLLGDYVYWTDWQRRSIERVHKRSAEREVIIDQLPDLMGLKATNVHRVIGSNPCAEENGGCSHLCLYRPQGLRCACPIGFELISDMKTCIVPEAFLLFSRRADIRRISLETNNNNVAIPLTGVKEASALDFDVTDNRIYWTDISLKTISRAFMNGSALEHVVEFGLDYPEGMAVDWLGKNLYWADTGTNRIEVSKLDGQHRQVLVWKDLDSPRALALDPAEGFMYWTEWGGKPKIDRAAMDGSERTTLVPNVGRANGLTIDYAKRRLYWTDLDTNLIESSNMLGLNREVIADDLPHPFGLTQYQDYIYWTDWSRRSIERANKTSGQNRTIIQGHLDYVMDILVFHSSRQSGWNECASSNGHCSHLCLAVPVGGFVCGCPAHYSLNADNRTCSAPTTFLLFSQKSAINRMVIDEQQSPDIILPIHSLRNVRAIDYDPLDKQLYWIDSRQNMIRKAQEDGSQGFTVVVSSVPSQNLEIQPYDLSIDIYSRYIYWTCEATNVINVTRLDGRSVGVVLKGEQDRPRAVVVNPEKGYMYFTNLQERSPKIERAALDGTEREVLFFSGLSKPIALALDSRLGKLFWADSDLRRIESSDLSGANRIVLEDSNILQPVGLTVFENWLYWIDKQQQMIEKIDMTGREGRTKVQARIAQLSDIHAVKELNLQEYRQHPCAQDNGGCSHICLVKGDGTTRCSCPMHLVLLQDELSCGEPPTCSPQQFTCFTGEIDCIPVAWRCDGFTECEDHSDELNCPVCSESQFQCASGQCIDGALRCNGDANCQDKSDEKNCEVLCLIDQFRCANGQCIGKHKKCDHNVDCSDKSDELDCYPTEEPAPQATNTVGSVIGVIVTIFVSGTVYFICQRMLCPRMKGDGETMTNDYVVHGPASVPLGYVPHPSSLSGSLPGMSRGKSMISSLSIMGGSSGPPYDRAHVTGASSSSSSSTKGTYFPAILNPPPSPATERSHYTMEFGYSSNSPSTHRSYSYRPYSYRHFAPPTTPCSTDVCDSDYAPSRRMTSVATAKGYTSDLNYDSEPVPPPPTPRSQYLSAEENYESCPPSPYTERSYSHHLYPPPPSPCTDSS
UniProt P61968: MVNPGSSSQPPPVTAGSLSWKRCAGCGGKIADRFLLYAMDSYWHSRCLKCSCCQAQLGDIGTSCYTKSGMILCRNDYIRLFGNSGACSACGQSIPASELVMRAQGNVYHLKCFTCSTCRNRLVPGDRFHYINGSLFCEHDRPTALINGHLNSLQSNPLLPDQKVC

[2] = compound: CC1=C(SC2=C1C(=N[C@H](C3=NN=C(N32)C)CC(=O)N)C4=CC=C(C=C4)Cl)C
Method in brief: as §1

[3] = compound: CC1=C2C(=CC=C1)N=C(N(C2=O)C3=CC=CC=C3C)CN4C=NC5=C(N=CN=C54)N
Method in brief: as §1

[4] = compound: Cc1sc2c(c1C)C(c1ccc(Cl)cc1)=N[C@@H](CC(=O)OC(C)(C)C)c1nnc(C)n1-2
Method in brief: as §1

[5] = compound: c1ccc([C@@H]2C[C@H]2NC2CCNCC2)cc1
Method in brief: as §1

Measured: log2 fold change

LMTK2 (UniProt Q8IWU2)
inactive: [1] 0.01 | [2] 0.002 | [3] -0.145 | [4] 0.022 | [5] 0.052

LDHA isoform 3 (UniProt P00338)
inactive: [1] 0.047 | [2] 0.02 | [3] -0.009 | [4] -0.025 | [5] 0

LAMB1 (UniProt P07942)
inactive: [1] 0.013 | [2] 0.1 | [3] 0.056 | [4] -0.061 | [5] -0.022

Quoted from above (2 entries):
LMTK2 (UniProt Q8IWU2)
inactive: [1] 0.01 | [2] 0.002 | [3] -0.145 | [4] 0.022 | [5] 0.052

LDHA isoform 3 (UniProt P00338)
inactive: [1] 0.047 | [2] 0.02 | [3] -0.009 | [4] -0.025 | [5] 0

(next part)

LAGE3 (UniProt Q14657)
inactive: [1] -0.018 | [2] 0.029 | [3] 0.053 | [4] -0.075 | [5] 0.006

LRRC42 (UniProt Q9Y546)
inactive: [1] -0.052 | [2] 0.036 | [3] 0.382 | [4] 0.135 | [5] 0.064

LRRC57 (UniProt Q8N9N7)
inactive: [1] -0.029 | [2] 0.07 | [3] 0.064 | [4] -0.01 | [5] 0.003

LEPROTL1 isoform 2 (UniProt O95214)
inactive: [1] 0.084 | [2] 0.043 | [3] -0.058 | [4] -0.01 | [5] -0.046

LAS1L (UniProt Q9Y4W2)
inactive: [1] -0.26 | [2] -0.078 | [3] 0.193 | [4] -0.023 | [5] 0.072

LPCAT1 (UniProt Q8NF37)
inactive: [1] -0.017 | [2] 0.039 | [3] 0.047 | [4] -0.062 | [5] 0.058

LMNB1 (UniProt P20700)
inactive: [1] 0.08 | [2] -0.005 | [3] -0.009 | [4] -0.018 | [5] 0.042

LMAN2L isoform 2 (UniProt Q9H0V9)
inactive: [1] 0.016 | [2] 0.031 | [3] -0.024 | [4] -0.011 | [5] -0.003

LRRC20 (UniProt Q8TCA0)
inactive: [1] 0.063 | [2] 0.156 | [3] 0.163 | [4] -0.128 | [5] -0.08

L3HYPDH (UniProt Q96EM0)
inactive: [1] 0.026 | [2] 0.123 | [3] 0.039 | [4] -0.006 | [5] -0.07

LEO1 (UniProt Q8WVC0)
inactive: [1] -0.009 | [2] 0.046 | [3] -0.009 | [4] -0.016 | [5] -0.011

LPGAT1 (UniProt Q92604)
inactive: [1] -0.068 | [2] -0.136 | [3] -0.02 | [4] 0.086 | [5] 0.074

LENG1 (UniProt Q96BZ8)
inactive: [1] 0.017 | [2] 0 | [3] 0.074 | [4] 0.118 | [5] 0.055

LRIG2 (UniProt O94898)
inactive: [1] 0.02 | [2] -0.005 | [3] 0.091 | [4] -0.06 | [5] 0.054

LEPROT (UniProt O15243)
inactive: [2] -0.022 | [4] -0.235 | [5] 0.112

LRP1 (UniProt Q07954)
inactive: [3] 0.066 | [4] -0.048

LIMK1 (UniProt P53667)
inactive: [1] -0.105 | [4] 0.232

LRP6 (UniProt O75581)
inactive: [1] 0.083 | [2] 0.073 | [4] -0.058 | [5] 0.215

LMNA isoform 2 (UniProt P02545)
inactive: [4] -0.033

LRBA, A0A494BZW2
inactive: [1] 0.002 | [2] 0.048 | [4] 0.113 | [5] 0.014

LRRC14 (UniProt Q15048)
inactive: [1] -0.098 | [3] 0.074 | [4] -0.022

LEG1 (UniProt Q6P5S2)
inactive: [1] -0.345 | [2] 0.013 | [3] 0.245 | [5] -0.135

LIMS1 isoform 5 (UniProt P48059)
inactive: [2] 0.007 | [5] 0.005

LRP5 (UniProt O75197)
inactive: [2] -0.117 | [3] -0.017 | [4] 0.163 | [5] 0.281

LMO4 (UniProt P61968)
inactive: [1] 0.131 | [2] 0.114 | [4] -0.094 | [5] 0.003

Reference: the supplement of paper PMC10849652
